Reference: publication PMC3764444, “Involvement of A20 in the molecular switch that activates the non-canonical NF-кB pathway” (Scientific Reports, 2013)
Results are given in words; binding and its absence hold for the method and conditions named. Binding seen in cells or lysates may run through a third protein. Some results given as binding are weak or reduced against the parent protein; the word gives no strength. For part of these data: Tags and fused reporters may be left off the sequences shown. Each block holds one molecule with its values, some of them ahead of it.

The chains behind the UniProt entries cited, without tags or fusion partners.
UniProt Q13490: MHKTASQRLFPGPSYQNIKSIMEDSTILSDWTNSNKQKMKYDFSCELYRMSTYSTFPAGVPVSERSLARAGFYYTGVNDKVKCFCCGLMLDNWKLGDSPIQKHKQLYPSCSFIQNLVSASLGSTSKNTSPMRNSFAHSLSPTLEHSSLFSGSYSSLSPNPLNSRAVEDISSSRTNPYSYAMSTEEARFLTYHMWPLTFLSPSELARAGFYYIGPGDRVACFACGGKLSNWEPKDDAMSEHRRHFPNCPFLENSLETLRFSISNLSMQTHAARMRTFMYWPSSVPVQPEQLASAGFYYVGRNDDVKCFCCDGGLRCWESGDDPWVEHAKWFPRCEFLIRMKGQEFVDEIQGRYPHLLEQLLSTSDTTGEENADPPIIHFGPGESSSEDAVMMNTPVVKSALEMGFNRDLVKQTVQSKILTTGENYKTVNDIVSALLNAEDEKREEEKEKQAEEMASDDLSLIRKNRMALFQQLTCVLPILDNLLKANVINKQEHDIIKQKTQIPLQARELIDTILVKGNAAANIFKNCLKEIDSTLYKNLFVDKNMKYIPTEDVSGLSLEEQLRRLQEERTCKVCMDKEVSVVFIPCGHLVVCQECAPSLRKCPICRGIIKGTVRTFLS
UniProt Q99558: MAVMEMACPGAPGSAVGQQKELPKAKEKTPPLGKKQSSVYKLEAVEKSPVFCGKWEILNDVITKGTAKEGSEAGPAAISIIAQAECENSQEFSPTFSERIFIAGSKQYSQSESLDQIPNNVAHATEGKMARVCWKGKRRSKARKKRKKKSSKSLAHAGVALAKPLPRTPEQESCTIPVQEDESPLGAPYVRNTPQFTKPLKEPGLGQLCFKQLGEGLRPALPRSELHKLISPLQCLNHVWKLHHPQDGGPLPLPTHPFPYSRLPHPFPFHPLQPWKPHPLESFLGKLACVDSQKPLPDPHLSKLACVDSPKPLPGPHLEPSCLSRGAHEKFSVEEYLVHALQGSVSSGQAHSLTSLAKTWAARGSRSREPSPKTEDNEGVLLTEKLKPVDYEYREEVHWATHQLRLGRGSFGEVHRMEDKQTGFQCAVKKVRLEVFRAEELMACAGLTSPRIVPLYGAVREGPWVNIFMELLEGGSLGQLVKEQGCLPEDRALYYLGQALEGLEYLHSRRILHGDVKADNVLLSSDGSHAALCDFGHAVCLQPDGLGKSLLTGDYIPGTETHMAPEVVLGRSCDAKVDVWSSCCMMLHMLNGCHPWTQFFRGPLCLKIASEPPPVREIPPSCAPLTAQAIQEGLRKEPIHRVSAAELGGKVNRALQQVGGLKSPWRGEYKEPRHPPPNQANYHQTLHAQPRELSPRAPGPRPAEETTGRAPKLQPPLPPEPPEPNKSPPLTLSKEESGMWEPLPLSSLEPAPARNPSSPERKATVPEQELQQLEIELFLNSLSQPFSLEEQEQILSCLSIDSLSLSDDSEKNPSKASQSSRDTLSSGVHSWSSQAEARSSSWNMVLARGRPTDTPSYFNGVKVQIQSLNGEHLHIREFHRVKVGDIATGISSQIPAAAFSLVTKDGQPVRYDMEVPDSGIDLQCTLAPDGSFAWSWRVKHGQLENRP
UniProt Q13489: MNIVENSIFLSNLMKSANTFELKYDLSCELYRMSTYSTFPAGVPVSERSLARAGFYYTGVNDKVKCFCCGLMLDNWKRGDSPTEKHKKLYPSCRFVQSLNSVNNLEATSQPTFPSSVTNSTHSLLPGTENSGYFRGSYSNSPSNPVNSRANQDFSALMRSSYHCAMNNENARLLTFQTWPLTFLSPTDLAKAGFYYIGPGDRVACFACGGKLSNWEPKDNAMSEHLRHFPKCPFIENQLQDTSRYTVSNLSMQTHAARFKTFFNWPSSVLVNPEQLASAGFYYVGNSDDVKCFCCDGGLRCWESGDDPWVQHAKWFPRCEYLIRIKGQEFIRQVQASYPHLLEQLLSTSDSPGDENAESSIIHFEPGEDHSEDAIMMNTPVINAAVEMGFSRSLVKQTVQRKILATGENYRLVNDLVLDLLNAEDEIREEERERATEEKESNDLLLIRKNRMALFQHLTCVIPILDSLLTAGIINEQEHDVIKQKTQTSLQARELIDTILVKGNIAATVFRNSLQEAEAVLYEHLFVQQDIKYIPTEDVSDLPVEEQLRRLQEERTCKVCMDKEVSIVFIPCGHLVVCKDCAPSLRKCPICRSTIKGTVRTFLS

How the values were obtained:
[1] = target: T1, endogenous A20 (human (endogenous in MDA-MB-231)) (UniProt P21580); assay: co-IP; endogenous A20 immunoprecipitated with anti-A20 (control anti-myc) and protein G Sepharose from MDA-MB-231 lysates (TNE buffer), cells untreated or treated with LTα1β2 (500 ng/ml) for 3 hr; immunoblot
T1 sequence: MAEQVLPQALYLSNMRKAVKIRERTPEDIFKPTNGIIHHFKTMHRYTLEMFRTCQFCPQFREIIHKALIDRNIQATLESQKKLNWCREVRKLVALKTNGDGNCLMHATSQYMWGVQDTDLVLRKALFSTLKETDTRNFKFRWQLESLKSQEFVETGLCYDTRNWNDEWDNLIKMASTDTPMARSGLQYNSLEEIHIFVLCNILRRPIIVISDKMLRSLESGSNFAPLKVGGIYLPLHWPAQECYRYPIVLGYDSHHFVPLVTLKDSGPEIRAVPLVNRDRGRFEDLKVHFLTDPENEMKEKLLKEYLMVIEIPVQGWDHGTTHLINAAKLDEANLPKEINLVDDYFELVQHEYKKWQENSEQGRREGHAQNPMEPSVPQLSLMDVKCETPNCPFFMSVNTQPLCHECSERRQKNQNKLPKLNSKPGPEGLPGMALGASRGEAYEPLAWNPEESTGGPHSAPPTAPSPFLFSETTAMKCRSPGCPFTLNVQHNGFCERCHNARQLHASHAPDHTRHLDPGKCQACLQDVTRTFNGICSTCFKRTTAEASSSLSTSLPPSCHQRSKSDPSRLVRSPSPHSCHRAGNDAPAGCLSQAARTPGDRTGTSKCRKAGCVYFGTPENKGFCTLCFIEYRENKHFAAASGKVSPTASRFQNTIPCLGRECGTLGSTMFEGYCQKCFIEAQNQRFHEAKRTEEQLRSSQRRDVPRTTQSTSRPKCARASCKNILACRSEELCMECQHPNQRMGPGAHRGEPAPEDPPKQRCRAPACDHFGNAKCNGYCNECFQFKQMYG

TAP-tagged cIAP1 (human) = TAP-tagged cIAP1 (human) (UniProt Q13490); assay: pull-down; TAP-cIAP1 or deletion mutants precipitated from HEK293T lysates on Strep-Tactin beads (partially purified), beads incubated with 0.5 μg GST-ZnF5-7 in TNE buffer with 0.5 mM DTT and 0.1 mg/ml BSA for 3 hr; immunoblot; only the binder purified

binding [1]: no binding
Molecule: NF-κB-inducing kinase (endogenous) (from UniProt Q99558 1-947)

binding [1]: binds
Molecule: cellular inhibitor of apoptosis protein 2 (endogenous) (from UniProt Q13489 1-604)

binding (TAP-tagged cIAP1 (human)): binds
B1: GST-A20-ZnF5-7 (domain or fragment, human, UniProt P21580 647-790, looked up)
chain: TASRFQNTIPCLGRECGTLGSTMFEGYCQKCFIEAQNQRFHEAKRTEEQLRSSQRRDVPRTTQSTSRPKCARASCKNILACRSEELCMECQHPNQRMGPGAHRGEPAPEDPPKQRCRAPACDHFGNAKCNGYCNECFQFKQMYG
notes: A20, human, fragment aa 647-790 encompassing ZnF5 to ZnF7; cloned in pGEX-6P-1; also called GST-ZnF5-7; source: E. coli DH5α, purified (Glutathione Sepharose 4B), dialyzed with PBS
